Out of some 59,000 compounds screened, about 6,500 (11%) were called active. The shares of active, inactive and inconclusive entries below differ from those in the screen. Cut-off read from the data, not from the text of the source: active = max dye-equivalent concentration above about 10 nM; inconclusive = mostly about 1.1 nM to 9.6 nM; inactive = weaker than that.
assay: qHTS Assay for Spectroscopic Profiling in A350 Spectral Region; conditions: Compound autofluorescence, 340/450 nm, Alexa 350 dye-equivalents; stronger effect = higher value

| Structure (SMILES) | max dye-equivalent concentration |
| --- | --- |
| CCOC(=O)C1CCN(C(=O)c2ccccc2N(C)S(C)(=O)=O)CC1 | inconclusive: 2.7 nM |
| CCCOc1ccccc1C1NC(=O)NC(C)=C1C(=O)OCCOCC (stereo not given) | inconclusive: 2.4 nM |
| Cc1ccccc1-n1nc(C)c2cc(C(=O)N3CCN(S(=O)(=O)c4ccccc4)CC3)sc21 | inconclusive: 2.2 nM |
| Cc1ccc2ccccc2c1COC(=O)c1nonc1N | inconclusive: 1.3 nM |
| CCCCn1c(SCC(=O)Nc2cc(C)on2)nc2ccccc2c1=O | inconclusive: 3.2 nM |
| COc1cc(CNC(=O)CCCC/C=C\C(C)C)ccc1O | inconclusive: 1.9 nM |
| CCOC(=O)c1cc2c(=O)n3ccccc3nc2n(Cc2ccc(Cl)cc2)c1=N | active: 480 nM |
| CN(Cc1ccco1)c1ncncc1-c1cccnc1 | inconclusive: 2.8 nM |
| N#Cc1ccc2ccn(CC(=O)NC3CCCCC3)c2c1 | inconclusive: 4.3 nM |
| CC(=O)N1CCN(c2nc(CC(C)C)c3c(c2C#N)CCC3)CC1 | active: 80 nM |
| N#CNC(N)=Nc1ccc(Cl)cc1 | inactive |
| O=C(CSC1=Nc2ccccc2C2=NC(CC(=O)NCc3ccco3)C(=O)N12)NCC1CCCO1 (stereo not given) | active: 58 nM |
| O=C(O)CCN1C(=O)C(=C2CCCCCC2)SC1=S | inconclusive: 1.9 nM |
| CC1(C)Cn2c(nnc2-c2ccccc2)S1 | inactive |
| CCn1cnc2sc(C(=O)N(Cc3ccc(N(C)C)cc3)Cc3ccco3)c(C)c2c1=O | inconclusive: 3.6 nM |
| COc1cc(OC)c(C2C(C#N)=C(N)Oc3cc(C)n(CCCN4CCOCC4)c(=O)c32)cc1OC (stereo not given) | inconclusive: 3.7 nM |
| O=c1nc(C(F)(F)F)nc2ccccn12 | inactive |
| COc1ccc(/C(O)=C2/C(=O)C(=O)N(CCCN(C)C)C2c2cccnc2)cc1 (stereo not given) | inconclusive: 1.9 nM |
| O=C(Nc1ccccc1N1CCN(c2ccc(F)cc2)CC1)c1ccccc1 | inactive |
| O=C(COC(=O)c1ccc(S(=O)(=O)N2CCCC2)cc1)NCc1ccccc1 | inconclusive: 3.2 nM |
| COc1ccc(S(=O)(=O)NC(CC(=O)NCc2ccc3c(c2)OCO3)c2ccco2)cc1 (stereo not given) | inactive |
| CC(=O)O[C@H]1CC[C@@]2(C)[C@@H](CC[C@H]3[C@H]2CC(=O)[C@@]2(C)[C@@H]3C[C@H]3CC(C)=CC(=O)[C@H]32)C1 | inactive |
| Cc1ccccc1CS(=O)(=O)c1nnc([C@H](CC(C)C)NC(=O)OC(C)(C)C)o1 | inactive |

| Structure (SMILES) | max dye-equivalent concentration |
| --- | --- |
| CCCn1c2c(c(O)c(C(=O)Nc3ncccc3O)c1=O)CCCC2 | inconclusive: 9.7 nM |
| O=C(NC1=NCCS1)c1cccs1 | inconclusive: 2.9 nM |
| O=C(NCCCN1CCCCCC1)c1ccc(CS(=O)(=O)Cc2ccccc2F)o1 | inactive |
| COc1ccccc1CCn1c(=O)c(-c2ccccc2)nc2cncnc21 | inactive |
| CCO/C(C)=N/n1c2nc3ccccc3nc2c2c(=O)n(Cc3ccccc3Cl)c(C)nc21 | inconclusive: 4.6 nM |
| COc1ccc(C(=O)Nc2ccc(-c3ccc(C)o3)cc2)cc1S(=O)(=O)N1CCOCC1 | inconclusive: 2.2 nM |
| Cc1ccc(NC2c3ncccc3C(=O)N2c2ccccc2C)cc1C (stereo not given) | inconclusive: 1.7 nM |
| CCN(CC)CCOC(=O)[C@@H](c1ccccc1)C1CCCCC1 | inactive |
| COc1cccc(-c2cc(C(=O)Nc3cccc(O)c3)no2)c1 | inactive |
| COc1cc(CN2CCN(c3ccccc3F)CC2)cc(OC)c1O | inconclusive: 1.4 nM |
| CCOC(=O)N1CCN(C(=O)c2ccc3c(=O)n(CCc4ccccc4)c(=S)[nH]c3c2)CC1 | inactive |
| COC(=O)C(C)Sc1nnc(SC(C)C(=O)OC)s1 (stereo not given) | inconclusive: 7.8 nM |
| O=C(CSc1nc2ccccc2[nH]1)N1CCCCC1 | inconclusive: 1.9 nM |
| CC1C/C=C/C=C/C=C/C=C/C(O[C@@H]2O[C@H](C)[C@@H](O)[C@H](N)[C@@H]2O)CC2OC(O)(CC(O)CC3OC3/C=C/C(=O)O1)CC(O)C2C(=O)O (stereo not given in full) | inconclusive: 6.6 nM |
| COc1ccc(OC)c(C(=O)CSc2nnnn2C)c1 | active: 28 nM |
| COc1ccccc1-c1nn2c(C3COc4ccccc4O3)nnc2s1 (stereo not given) | inconclusive: 3.9 nM |
| COc1cc(Br)cc2cc(C(=O)N3CCCCC3C)c(=O)oc12 (stereo not given) | inactive |
| COc1ccc(-n2c(=O)c(-c3cccc(Cl)c3)nc3cncnc32)cc1 | inactive |
| O=C(CC1SC(N2CCCCC2)=NC1=O)Nc1cccc(C(=O)O)c1 (stereo not given) | inconclusive: 6.5 nM |
| CC(=O)N(CCc1ccccc1C)Cc1cc2cc3c(cc2[nH]c1=O)OCO3 | active: 120 nM |
| CN1CCCC2(CCN(C(=O)c3cnccn3)CC2)C1 | inactive |
| COc1cccc(CNc2nc3ccccc3n2CCN2CCCCC2)c1 | inconclusive: 2.2 nM |
| Cc1ccccc1OCc1nc2c3cnn(C)c3ncn2n1 | inconclusive: 1.9 nM |

Reprinted at random: 3 records from the list

| Structure (SMILES) | max dye-equivalent concentration |
| --- | --- |
| Cc1ccccc1OCc1nc2c3cnn(C)c3ncn2n1 | inconclusive: 1.9 nM |
| COc1ccc(OC)c(C(=O)CSc2nnnn2C)c1 | active: 28 nM |
| COc1cc(Br)cc2cc(C(=O)N3CCCCC3C)c(=O)oc12 (stereo not given) | inactive |

(cont.)

| Structure (SMILES) | max dye-equivalent concentration |
| --- | --- |
| CC(=O)NC(Cc1ccc(F)cc1)C(=O)NC1CCN(c2nnnn2-c2ccccc2)CC1 (stereo not given) | inconclusive: 2.8 nM |
| c1ccc(-n2ncc3c(N4CCCC4)ncnc32)cc1 | inactive |
| COc1ccc(-n2c(SCC(N)=O)nnc2-c2ccccc2F)cc1 | inconclusive: 4.8 nM |
| C=CCn1c(SCc2c(C)noc2C)nc2cc(C(=O)O)ccc2c1=O | inconclusive: 2.3 nM |
| Cc1cc2cc(CNC(=O)CC(C)C)ccc2n1C | inconclusive: 4.6 nM |
| CCOC(=O)CC(C#N)c1c[nH]c2ccccc12 (stereo not given) | inconclusive: 4.6 nM |
| C[C@H](N)C1CCC(C(=O)Nc2ccncc2)CC1 (stereo not given in full) | inconclusive: 5.3 nM |
| N#Cc1ccsc1NC(=O)CSc1ncn[nH]1 | inconclusive: 1.8 nM |
| COc1cccc(-n2c(SCC(=O)NCCc3ccccc3)nnc2-c2ccoc2C)c1 | inactive |
| O=C(Nc1ccc2c(c1)nc1n2CCN(C2CCCCC2)C1)c1ccco1 | inconclusive: 9.7 nM |
| COc1ccccc1N1CCN(c2ccc(-c3ccccc3)nn2)CC1 | inactive |
| O=C(Nc1cccnc1N1CCOCC1)c1ccco1 | inconclusive: 2.4 nM |
| COc1ccccc1-c1cc(-n2ccnc2)ncn1 | inconclusive: 2.7 nM |
| Cc1ccc(C)n1-c1cccc(C(=O)O)c1 | inconclusive: 1.1 nM |
| CC(=O)Nc1ccc(N=Cc2nc(-c3ccc(C)cc3)oc2O)cc1 | inconclusive: 2.3 nM |
| Cc1ccc(-c2nn(-c3ccccc3)c3[nH]c(=O)c(CNCCN(C)C)cc23)cc1 | inconclusive: 3.8 nM |
| O=C(NCC1CCCO1)c1c(O)c2cccc3c2n(c1=O)CCC3 (stereo not given) | inconclusive: 3.7 nM |
| CN1C(=O)NC(c2ccc(O)cc2)C(C(=O)c2cccs2)C1(O)C(F)(F)F (stereo not given) | inconclusive: 1.2 nM |
| CCC(C)(C)n1nnnc1C(c1cc2cccc(C)c2[nH]c1=O)N1CCN(C(=O)c2ccco2)CC1 (stereo not given) | inconclusive: 4.2 nM |
| COc1cc(NC(=O)CN2C(=O)NC(C)(CC(C)C)C2=O)cc(OC)c1 (stereo not given) | inconclusive: 1.1 nM |
| N[C@@H](Cc1c[nH]c2ccccc12)C(=O)NCC(=O)O | inactive |
| COc1cc(C(=O)OC(C)CN2CCCC2)cc(OC)c1OC (stereo not given) | inconclusive: 3.8 nM |
| O=C(NC1CCCCC1)[C@H](O)[C@@H](O)C(=O)NC1CCCCC1 | inconclusive: 1.2 nM |

| Structure (SMILES) | max dye-equivalent concentration |
| --- | --- |
| O=C(O)CCCc1ccc2ccccc2c1 | inactive |
| Cc1cccn2c(=O)c3cc(C(=O)NCc4ccco4)c(=N)n(CCc4ccccc4)c3nc12 | active: 580 nM |
| COc1ccc(C(=O)c2ccc(OC)cc2O)c(O)c1 | inconclusive: 8.6 nM |
| CN(C)CC(C)(C)CN1c2ccccc2Sc2ccccc21 | inactive |
| CCC(CC)C(=O)Nc1c2cnn(-c3ccccc3)c2nc(=O)n1-c1ccccc1 | inconclusive: 6.6 nM |
| COCCn1c(=O)c(-c2cc(F)cc(F)c2)nc2cnc(Oc3cccc(Cl)c3)nc21 | inconclusive: 3.8 nM |
| C[C@@]12CC[C@@H]3[C@H](CCC4=CC(=O)CC[C@]43C)[C@@H]1CC[C@@H]2C(=O)COS(=O)(=O)c1ccc(Br)cc1 | inactive |
| COc1ccc2c(c1)c(=O)oc1cc(OCC(=O)N3CCC(C)CC3)ccc12 | active: 360 nM |
| CN(C)C(=O)c1ccc(-c2nccc(N(C)Cc3ccco3)n2)cc1 | inactive |
| CSC1=C(C#N)C(c2ccccc2C)C(C#N)=C(N)N1 (stereo not given) | inconclusive: 6.6 nM |
| CCn1c2ccccc2c2cc(N)ccc21 | active: 310 nM |
| CCC(=O)Nc1ccc2c(c1)ncn2-c1ccccc1OC | inconclusive: 1.8 nM |
| N#CC1=C2SCN(Cc3ccco3)CN2C(=O)CC1c1ccc(Cl)cc1 (stereo not given) | inconclusive: 1.3 nM |
| CCc1nnc(NC(=O)C2CCCN2S(=O)(=O)c2ccccc2)s1 (stereo not given) | active: 16 nM |
| CCOc1ccccc1/C=C(\C#N)C(N)=O | inconclusive: 1.4 nM |
| O=C(c1ccco1)N1CCN(C(=O)C2CCN(S(=O)(=O)c3cccc4nsnc34)CC2)CC1 | inconclusive: 1.9 nM |
| O=C(/C=N/O)Nc1ccc(F)cc1 | inconclusive: 1.9 nM |
| COC(=O)c1cccc(NC2CC(=O)N(c3ccc(OC)c(OC)c3)C2=O)c1 (stereo not given) | inconclusive: 4.7 nM |
| COc1ccc(NC(=O)Cn2cccc2)cc1Cl | inactive |
| O=C(C1=C(O)C(=O)N(CC2CCCO2)C1c1cccnc1)c1ccco1 (stereo not given) | inconclusive: 1.1 nM |
| CCn1c(SC/C=C/c2ccccc2)nnc1-c1cccs1 | inconclusive: 2.6 nM |

Among those listed so far, these have bromine:

| Structure (SMILES) | max dye-equivalent concentration |
| --- | --- |
| COc1cc(Br)cc2cc(C(=O)N3CCCCC3C)c(=O)oc12 (stereo not given) | inactive |
| C[C@@]12CC[C@@H]3[C@H](CCC4=CC(=O)CC[C@]43C)[C@@H]1CC[C@@H]2C(=O)COS(=O)(=O)c1ccc(Br)cc1 | inactive |
